Laboratory results: PubChem BioAssay AID504744 (Drosophila RNAi Screening Center, 2011)

Test: 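Find genes whose loss alters insulin-driven dAkt phosphorylation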 (primary screen)
System: Drosophila Kc167 cells
Reagent: long dsRNA against Drosophila genes, 250 ng dsRNA per well of a 384-well plate
Timing: 3 days of knock-down, then overnight serum-free starvation before stimulation
Treatment: bovine insulin at 387 nM for 10 minutes after 12 h without serum
Measurement: 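Per-well phospho-dAkt level from an in-cell fluorescent antibody stain, divided by a DNA-dye signal; log2 residuals turned into z-scores that take cell number into account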
Rule for the call: 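Under insulin, a gene counts as a hit if the average z-score of two replicates lies above 2.5 or below -2.5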
The deposit covers about 23,000 reagents; below is an unselected part of those with a known target gene and a result. In the full data, 98 (0.43%) were called active. 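Only hit calls are given; the phospho-dAkt signals, z-scores and hit direction were not deposited.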 Reagents against one gene are numbered here. A plus sign joins genes that one reagent is predicted to hit.

How did the screen score CG13607 (GeneID 42859)?
outcome: inactive

With CG9497 (GeneID 33884), what was measured?
outcome: inactive

What is on record for CG5614 (GeneID 41906)?
outcome: inactive

For pcx (GeneID 31204) #1, what does the deposit list?
outcome: inactive

With pcx (GeneID 31204) #2, what does the deposit list?
outcome: inactive

For pcx (GeneID 31204) #3, what does the deposit list?
outcome: inactive

Which result is listed for pcx (GeneID 31204) #4?
outcome: inactive

What is on record for pcx (GeneID 31204) #5?
outcome: inactive

What did the screen give for pcx (GeneID 31204) #6?
outcome: inactive

For CG31751 (GeneID 35118) #1, what was measured?
outcome: inactive

What is on record for CG31751 (GeneID 35118) #2?
outcome: inactive

For Oatp74D (GeneID 39954) #1, what does the deposit list?
outcome: inactive

What did the screen give for Oatp74D (GeneID 39954) #2?
outcome: inactive

With CG6067 (GeneID 31529), how do the results read?
outcome: inactive

What is on record for d4 (GeneID 35485) #1?
outcome: inactive

For d4 (GeneID 35485) #2, how do the results read?
outcome: inactive

With CG13679 (GeneID 38919) #1, what does the deposit list?
outcome: inactive

For CG13679 (GeneID 38919) #2, what was measured?
outcome: inactive

With CG5726 (GeneID 37082), how do the results read?
outcome: inactive

How did the screen score CG1523 (GeneID 43400)?
outcome: inactive

For Pi4KIIIalpha (GeneID 31247), what does the deposit list?
outcome: inactive

For Z600 (GeneID 39673), what was measured?
outcome: inactive

Laid out differently: 6 of the entries above
d4 (GeneID 35485) #1
- outcome: inactive

d4 (GeneID 35485) #2
- outcome: inactive

CG13679 (GeneID 38919) #1
- outcome: inactive

CG13679 (GeneID 38919) #2
- outcome: inactive

CG5726 (GeneID 37082)
- outcome: inactive

CG1523 (GeneID 43400)
- outcome: inactive

More reagents follow:
For CG30379 (GeneID 246578), how do the results read?
outcome: inactive

With CG5861 (GeneID 34965), how do the results read?
outcome: inactive

With CG5455 (GeneID 43196), how do the results read?
outcome: inactive

For Dnaaf6 (GeneID 39598), what does the deposit list?
outcome: inactive

What is on record for CG7943 (GeneID 43574)?
outcome: inactive

What is on record for Dnz1 (GeneID 34503)?
outcome: inactive

What is on record for CG6244 (GeneID 2768962)?
outcome: inactive

For CycT (GeneID 39961), what was measured?
outcome: inactive

With CG17470 (GeneID 35321), what was measured?
outcome: inactive

What is on record for Spn77Bb + Spn77Bc #1?
outcome: inactive

For Spn77Bb + Spn77Bc #2, what was measured?
outcome: inactive

What is on record for nAChRalpha5 (GeneID 34826) #1?
outcome: inactive

With nAChRalpha5 (GeneID 34826) #2, what was measured?
outcome: inactive

For nAChRalpha5 (GeneID 34826) #3, how do the results read?
outcome: inactive

Which result is listed for nAChRalpha5 (GeneID 34826) #4?
outcome: inactive

What did the screen give for Sf3b3 (GeneID 38093)?
outcome: inactive

What is on record for Dpp10 (GeneID 33923) #1?
outcome: inactive

With Dpp10 (GeneID 33923) #2, what was measured?
outcome: inactive

What did the screen give for pippin (GeneID 37770)?
outcome: inactive

How did the screen score Tim17a2 (GeneID 40632)?
outcome: inactive

What is on record for jing (GeneID 35555) #1?
outcome: inactive

For jing (GeneID 35555) #2, how do the results read?
outcome: inactive

For jing (GeneID 35555) #3, how do the results read?
outcome: inactive

Which result is listed for CG13994 (GeneID 33853)?
outcome: inactive

With l(2)05287 (GeneID 35374) #1, how do the results read?
outcome: inactive

With l(2)05287 (GeneID 35374) #2, how do the results read?
outcome: inactive

How did the screen score CG1789 (GeneID 31812)?
outcome: inactive

For CG30161 (GeneID 37945), what does the deposit list?
outcome: inactive

How did the screen score CG5273 (GeneID 31021)?
outcome: inactive

With CG7582 (GeneID 43492), how do the results read?
outcome: inactive

With Acp76A (GeneID 40078), how do the results read?
outcome: inactive

For CCHa2 (GeneID 41648), what does the deposit list?
outcome: inactive

For CG18766 (GeneID 59150), how do the results read?
outcome: inactive

For CG5171 (GeneID 34016), what does the deposit list?
outcome: inactive

How did the screen score GstD3 (GeneID 48336)?
outcome: inactive
